Measurements: paper PMC11063907
Where a chain is given by its changes, count along the chain named. Results are given in words; binding and its absence hold for the method and conditions named. In cells and extracts the contact can be indirect. A yes stands for co-enrichment or nearness to the bait. Other partners may have been found. For some of these results: A no says only that the protein was not detected with the bait. Where a sequence is shown, tags or fusion partners need not be part of it.

Protein sequences, listed by entry. Tags and fused reporters are not part of them.
UniProt F8VPN4: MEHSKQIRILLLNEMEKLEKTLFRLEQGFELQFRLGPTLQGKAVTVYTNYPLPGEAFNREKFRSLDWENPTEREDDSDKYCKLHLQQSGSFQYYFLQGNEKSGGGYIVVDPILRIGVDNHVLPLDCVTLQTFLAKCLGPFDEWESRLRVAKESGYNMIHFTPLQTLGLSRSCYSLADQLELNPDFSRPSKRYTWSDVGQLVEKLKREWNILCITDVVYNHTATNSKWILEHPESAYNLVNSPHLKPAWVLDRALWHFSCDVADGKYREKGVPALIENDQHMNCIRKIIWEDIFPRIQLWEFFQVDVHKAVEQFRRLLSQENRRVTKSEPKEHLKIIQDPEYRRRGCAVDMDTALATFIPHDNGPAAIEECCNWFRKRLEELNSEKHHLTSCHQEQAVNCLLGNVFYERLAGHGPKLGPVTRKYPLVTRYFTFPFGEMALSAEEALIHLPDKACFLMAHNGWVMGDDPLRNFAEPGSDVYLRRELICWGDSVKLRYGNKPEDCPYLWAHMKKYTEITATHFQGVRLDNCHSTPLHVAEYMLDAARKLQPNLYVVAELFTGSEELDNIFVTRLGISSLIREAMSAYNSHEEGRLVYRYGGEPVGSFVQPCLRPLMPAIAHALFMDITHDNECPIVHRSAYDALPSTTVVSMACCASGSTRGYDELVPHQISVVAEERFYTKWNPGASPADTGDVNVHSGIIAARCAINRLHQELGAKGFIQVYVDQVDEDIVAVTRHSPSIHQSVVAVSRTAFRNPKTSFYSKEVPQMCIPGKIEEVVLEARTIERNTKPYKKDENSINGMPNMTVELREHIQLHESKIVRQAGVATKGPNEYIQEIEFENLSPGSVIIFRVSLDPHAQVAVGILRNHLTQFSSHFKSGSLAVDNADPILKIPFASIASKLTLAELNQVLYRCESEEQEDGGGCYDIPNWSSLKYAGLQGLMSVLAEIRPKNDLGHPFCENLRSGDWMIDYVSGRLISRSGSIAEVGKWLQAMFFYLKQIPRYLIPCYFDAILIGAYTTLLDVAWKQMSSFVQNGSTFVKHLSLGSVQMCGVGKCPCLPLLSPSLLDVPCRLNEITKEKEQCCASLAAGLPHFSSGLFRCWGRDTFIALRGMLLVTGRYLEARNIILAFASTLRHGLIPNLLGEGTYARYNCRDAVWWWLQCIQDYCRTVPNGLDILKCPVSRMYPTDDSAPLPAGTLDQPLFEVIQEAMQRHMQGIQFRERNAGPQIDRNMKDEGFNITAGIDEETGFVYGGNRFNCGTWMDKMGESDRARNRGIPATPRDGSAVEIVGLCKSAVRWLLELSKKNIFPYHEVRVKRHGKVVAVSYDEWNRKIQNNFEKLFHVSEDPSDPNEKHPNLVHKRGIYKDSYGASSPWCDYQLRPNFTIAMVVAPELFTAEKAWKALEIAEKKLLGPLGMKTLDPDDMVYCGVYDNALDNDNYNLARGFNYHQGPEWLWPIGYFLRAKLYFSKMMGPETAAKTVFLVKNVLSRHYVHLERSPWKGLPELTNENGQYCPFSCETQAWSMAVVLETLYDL

T1: malin-myc (mouse malin with a C-terminal 2x c-myc tag, expressed from the endogenous gene) (mouse) (UniProt Q8BR37)
T1 sequence: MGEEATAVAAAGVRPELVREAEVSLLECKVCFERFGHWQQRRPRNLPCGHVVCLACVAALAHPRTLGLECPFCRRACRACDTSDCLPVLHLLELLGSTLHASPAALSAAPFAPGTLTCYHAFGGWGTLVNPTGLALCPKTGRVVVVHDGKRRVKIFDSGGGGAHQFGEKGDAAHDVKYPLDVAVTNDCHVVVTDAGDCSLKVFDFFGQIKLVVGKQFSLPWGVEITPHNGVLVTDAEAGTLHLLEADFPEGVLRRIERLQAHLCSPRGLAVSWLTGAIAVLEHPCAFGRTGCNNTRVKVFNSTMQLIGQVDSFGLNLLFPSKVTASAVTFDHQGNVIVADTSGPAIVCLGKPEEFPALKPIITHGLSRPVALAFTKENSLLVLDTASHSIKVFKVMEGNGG

B1: laforin (enzyme, UniProt Q9WUA5 1-330)
chain: MLFRFGVVVPPAVAGARQELLLAGSRPELGRWEPHGAVRLRPAGTAAGAAALALQEPGLWLAEVELEAYEEAGGAEPGRVDTFWYKFLQREPGGELHWEGNGPHHDRCCTYNEDNLVDGVYCLPVGHWIEATGHTNEMKHTTDFYFNIAGHQAMHYSRILPNIWLGSCPRQLEHVTIKLKHELGVTAVMNFQTEWDIIQNSSGCNRYPEPMTPDTMMKLYKEEGLSYIWMPTPDMSTEGRVQMLPQAVCLLHALLENGHTVYVHCNAGVGRSTAAVCGWLHYVIGWNLRKVQYFIMAKRPAVYIDEDALAQAQQDFSQKFGKVHSSICAL
B2: glycogenin (GYG1) (enzyme, UniProt Q9R062 1-333)
chain: MTDQAFVTLTTNDAYAKGALVLGSSLKQHRTTRRMVVLTSPQVSDSMRKVLETVFDDVIMVDVLDSGDSAHLTLMKRPELGITLTKLHCWSLTQYSKCVFMDADTLVLSNIDDLFEREELSAAPDPGWPDCFNSGVFVYQPSIETYNQLLHLASEQGSFDGGDQGLLNTYFSGWATTDITKHLPFVYNLSSISIYSYLPAFKAFGKNAKVVHFLGRTKPWNYTYNPQTKSVNCDSQDPTVSHPEFLNLWWDTFTTNVLPLLQHHGLVKDASSYLMMEHVSGALSDLSFGEAPAAPQPSMSSEERKERWEQGQADYMGADSFDNIKRKLDTYLQ
B3: Ppp1r3a (protein, UniProt Q99MR9 1-1089)
chain: MEPAEEPGQISKDNFLEVPNLSDSVCEDEEVKATFKPGFSPQPSRRGSGSSEDMYLDTPTSASRRVSFADSLGFSLVSVKEFDCWELPSVSTDFDLSGDVFHTDEYVLSPLFDLPSSKEKLMEQLQVQKAVLESAEHLPGSSMKGIIRVLNISFEKLVYVRMSLDDWQTHYDILAEYVPNSCDGETDQFSFKISLVPPYQKEGGKVEFCIRYETSAGTFWSNNNGTNYILVCQKKRKEPEPVKPLEEAPSRQIKGCLKVKSRSKEEPLLAPEENKFETLKFTESYIPTIICSHEDKDDLGANHPNVDDINKKHDEHNGKELDLMINQRLITSQDEKNTFATDTVNFTNKAEGSEKKQAYHEINTDLFMGPLSPSLSAESSLKRDFYHSRSSSPGNEYGHPHSEEIISDMGEKGPSLGDTSSDELMQLELCSKEDLDDNANPANGSGRVCSSFDQRMACGLKNNEAGIKKTGIQDYKYSHGDSTKLEESNASSRDDYAKVDNKKEKQTCLGVNENPSKNFQSVFQTQEGHMGYPKISTEGDKANNQDLTSLLSKDITANTWAVTVDPCPSTNAKRSWREVGSGSNLEPGTSDLSSPRNFSPLTDDHLFQADRENSDSSNPENQNMNTRHRKKWNVLETQSETSETESDIAKHTKEQAEYKDMWEKTDNSRNLKATPTEHLFTCRETECYGLSSLADHGITEKAQAVTAYIIKTTLESTPESASARGKAIIAKLPQETAGNDRPIEVKETAFDPHEGRKDDSHYSLCHGDTAGVIHDNDFERESHLDICNLRVDEMKKEKTTSTCFPQKTYDKEKHGIGSVTSIDEPSQVITGNQKATSKLDLHLGVLPTDRAIFQANADLELLQELSRRTDFNAVPSAFNSDTASASRDSSQVYRHCSKKSVPSYGEEKAVTNTTLQSIPTKSEYNWHPESEVLGHAMSKPEDVFKSSEIMKSGSGGERGGGPILQQKEGSLENSQGPMFFTNEPLENLDEASSENEGLMHSGQSQCYLGDKGLVSSASATVSTQELEAQGRESLLSISTNSKIPYFLLFLIFLATVYYYDLMIGLAFYLFSLYWLYWEGGRQRESVKKK
B4: LaforinC265S (catalytically inactive laforin, expressed from the endogenous gene) (enzyme, UniProt Q9WUA5 1-330)
chain: B1 chain with C265S
B5: glycogen branching enzyme (GBE) (enzyme, UniProt Q9D6Y9 1-702)
chain: MAAPAAPAAGETGPDARLEAALADVPELARLLEIDPYLKPFAADFQRRYKKFSQVLHDIGENEGGIDKFSRGYESFGIHRCSDGGIYCKEWAPGAEGVFLTGEFSGWNPFSHPYKKLEYGKWELYIPPKQNKSPLIPHGSKLKVVITSKSGEILYRISPWAKYVVRENNNVNYDWIHWAPEDPYKFKHSRPKKPRSLRIYESHVGISSHEGKIASYKHFTSNVLPRIKDLGYNCIQLMAIMEHAYYASFGYQITSFFAASSRYGTPEELKELVDTAHSMGIVVLLDVVHSHASKNSEDGLNMFDGTDSCYFHSGPRGTHDLWDSRLFIYSSWEVLRFLLSNIRWWLEEYCFDGFRFDGVTSMLYHHHGMGQGFSGDYNEYFGLQVDEDALIYLMLANHLAHTLYPDSITIAEDVSGMPALCSPTSQGGGGFDYRLAMAIPDKWIQLLKEFKDEDWNMGNIVYTLTNRRYLEKCVAYAESHDQALVGDKTLAFWLMDAEMYTNMSVLAPFTPVIDRGIQLHKMIRLITHGLGGEGYLNFMGNEFGHPEWLDFPRKGNNESYHYARRQFNLTDDDLLRYKFLNNFDRDMNRLEERCGWLSAPQAYVSEKHEANKTITFERAGLLFIFNFHPSKSYTDYRVGTATPGKFKIVLDSDAAEYGGHQRLDHNTNYFAEAFEHNGRPYSLLVYIPSRVALILQNVDLQN
B6: protein targeting to glycogen (PTG) (protein, UniProt Q7TMB3 1-317)
chain: MSCTRMIHVLDPRPLTSSVMPVDMAMRICLAHSPPLKSFLGPYNGFQRRNFVNKLKPLKPCLSVKQEAKSQSEWKSPHNQAKKRVVFADSKGLSLTAIHVFSDLPEEPAWDLQFDLLDLNDISSSLKLHEEKNLVFDFPQPSTDYLSFRDRFQKNFVCLENCSLQDRTVTGTVKVKNVSFEKKVQVRITFDTWKTYTDVDCVYMKNVYSSSDSDTFSFAIDLPRVIPTEEKIEFCISYHANGRIFWDNNEGQNYRIVHVQWKPDGVQTQVAPKDCAFQQGPPKTEIEPTVFGSPRLASGLFPEWQSWGRVENLTSYR

What was measured:
[1] = target: T1, malin-myc (mouse malin with a C-terminal 2x c-myc tag, expressed from the endogenous gene) (mouse); test: affinity purification with mass spectrometry; anti-c-myc immunoprecipitates from skeletal muscle of 4-month-old malin-myc/LKO mice (laforin knockout), compared with malin-myc and LKO mice, LC-MS/MS
[2] = target: T1, malin-myc (mouse malin with a C-terminal 2x c-myc tag, expressed from the endogenous gene) (mouse); test: condition: only in laforin knockout mice (malin-myc/LKO); affinity purification with mass spectrometry; anti-c-myc immunoprecipitates from skeletal muscle of 4-month-old malin-myc/LKO mice (laforin knockout), compared with malin-myc and LKO mice, LC-MS/MS
[3] = target: T1, malin-myc (mouse malin with a C-terminal 2x c-myc tag, expressed from the endogenous gene) (mouse); test: affinity purification with mass spectrometry; anti-c-myc immunoprecipitates from the low-speed supernatant of brain of malin-myc mice, WT mice as control, LC-MS/MS
[4] = target: T1, malin-myc (mouse malin with a C-terminal 2x c-myc tag, expressed from the endogenous gene) (mouse); test: affinity purification with mass spectrometry; anti-c-myc immunoprecipitates from skeletal muscle of 4-month-old malin-myc/LCS mice (laforin C265S in the genome), LCS mice as control, LC-MS/MS
[5] = target: T1, malin-myc (mouse malin with a C-terminal 2x c-myc tag, expressed from the endogenous gene) (mouse); test: affinity purification with mass spectrometry; anti-c-myc immunoprecipitates from the low-speed supernatant of skeletal muscle of 4-month-old malin-myc mice, WT (or LKO, LCS) mice as control, digested on beads, LC-MS/MS; also with α-amylase during the IP

Molecule | binding [1] | binding [2] | also measured
glycogen debranching enzyme (AGL) (from UniProt F8VPN4 1-1532) | binds weakly | no binding | –
B1 | – | – | binding [3]: binds
B2 | binds weakly | no binding | –
B3 | binds weakly | no binding | –
B4 | – | – | binding [4]: binds
B5 | – | – | binding [5]: no binding
B6 | – | – | binding [5]: no binding
